Test results as given in patent publication US8476434B2, “Protein kinase modulators and method of use” (Amgen Inc., priority 2004, dated 2013).
Some results were stated once for a whole list of compounds, not compound by compound.

Sequences of proteins named here, by UniProt entry; tags and fusion partners are left off. Residues count along the entry.
UniProt Q02763, 23-1124: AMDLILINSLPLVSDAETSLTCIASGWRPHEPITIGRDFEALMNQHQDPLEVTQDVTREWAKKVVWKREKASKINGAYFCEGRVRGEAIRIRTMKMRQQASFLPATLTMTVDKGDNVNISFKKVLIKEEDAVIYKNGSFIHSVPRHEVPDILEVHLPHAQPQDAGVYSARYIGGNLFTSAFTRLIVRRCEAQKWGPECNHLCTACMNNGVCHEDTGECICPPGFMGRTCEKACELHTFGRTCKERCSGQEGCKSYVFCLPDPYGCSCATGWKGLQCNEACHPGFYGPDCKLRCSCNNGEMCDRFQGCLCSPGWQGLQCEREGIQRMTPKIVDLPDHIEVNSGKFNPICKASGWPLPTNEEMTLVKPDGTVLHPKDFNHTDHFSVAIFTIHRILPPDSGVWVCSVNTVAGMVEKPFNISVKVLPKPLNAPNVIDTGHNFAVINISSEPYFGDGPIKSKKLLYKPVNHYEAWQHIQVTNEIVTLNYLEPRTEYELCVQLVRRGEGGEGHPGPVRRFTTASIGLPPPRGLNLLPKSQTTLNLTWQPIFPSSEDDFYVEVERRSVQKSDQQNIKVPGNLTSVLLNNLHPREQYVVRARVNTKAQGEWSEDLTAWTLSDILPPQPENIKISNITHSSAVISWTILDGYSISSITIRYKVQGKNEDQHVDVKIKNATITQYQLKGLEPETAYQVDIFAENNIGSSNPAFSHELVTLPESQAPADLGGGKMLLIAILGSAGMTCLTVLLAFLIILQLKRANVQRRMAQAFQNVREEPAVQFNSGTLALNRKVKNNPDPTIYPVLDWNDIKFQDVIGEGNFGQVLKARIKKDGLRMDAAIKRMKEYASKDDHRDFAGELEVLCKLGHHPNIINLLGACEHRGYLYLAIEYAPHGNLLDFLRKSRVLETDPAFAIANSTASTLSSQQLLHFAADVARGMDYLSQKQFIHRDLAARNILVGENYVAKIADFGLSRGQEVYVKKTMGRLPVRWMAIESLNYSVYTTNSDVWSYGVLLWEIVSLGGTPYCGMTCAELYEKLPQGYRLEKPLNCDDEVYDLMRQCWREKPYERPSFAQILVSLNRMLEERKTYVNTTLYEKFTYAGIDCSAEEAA

Biological target: Tie-2 kinase enzyme (Homo sapiens, UniProt Q02763)
Assay: Tie-2 Homogenous Time Resolved Fluorescent (HTRF) kinase assay
Assay type: biochemical
Details: read-out: IC50's for the inhibition of Tie-2 as measured by the HTRF assay

| Compound | IC50 |
| --- | --- |
| COc1ccc(C(C)(C)C)cc1NC(=O)c1ccc(C)c(Oc2ncccc2-c2ccncn2)c1 [Example 249, N-(5-(1,1-dimethylethyl)-2-(methyloxy)phenyl)-4-methyl-3-((3-(4-pyrimidinyl)-2-pyridinyl)oxy)benzamide] | < 5 µM |
| Cc1ccc(C(=O)Nc2cc(C(F)(F)F)ccc2Cl)cc1Oc1ncccc1-c1ccncn1 [Example 250, N-(2-chloro-5-(trifluoromethyl)phenyl)-4-methyl-3-((3-(4-pyrimidinyl)-2-pyridinyl)oxy)benzamide] | < 5 µM |
| Cc1ccc(C(=O)Nc2cc(C(F)(F)F)ccc2N2CCCC2)cc1Oc1ncccc1-c1ccncn1 [Example 251, 4-methyl-3-((3-(4-pyrimidinyl)-2-pyridinyl)oxy)-N-(2-(1-pyrrolidinyl)-5-(trifluoromethyl)phenyl) benzamide] | < 5 µM |
| CSc1ccc(C(F)(F)F)cc1NC(=O)c1ccc(C)c(Oc2ncccc2-c2ccncn2)c1 [Example 252, 4-methyl-N-(2-(methylsulfanyl)-5-(trifluoromethyl)phenyl)-3-((3-(4-pyrimidinyl)-2-pyridinyl)oxy)benzamide] | < 5 µM |
| Cc1ccc(C(=O)Nc2cc(C(F)(F)F)ccc2Br)cc1Oc1ncccc1-c1ccncn1 [Example 254, N-(2-bromo-5-(trifluoromethyl)phenyl)-4-methyl-3-((3-(4-pyrimidinyl)-2-pyridinyl)oxy)benzamide] | < 5 µM |
| Cc1ccc(C(=O)Nc2cc(Cl)ccc2Cl)cc1Oc1ncccc1-c1ccncn1 [Example 255, N-(2,5-dichlorophenyl)-4-methyl-3-((3-(4-pyrimidinyl)-2-pyridinyl)oxy)benzamide] | < 5 µM |
| COc1ccc(-c2ccccc2)cc1NC(=O)c1ccc(C)c(Oc2ncccc2-c2ccncn2)c1 [Example 257, 4-methyl-N-(4-(methyloxy)-1,1′-biphenyl-3-yl)-3-((3-(4-pyrimidinyl)-2-pyridinyl)oxy)benzamide] | < 5 µM |
| COC(=O)c1ccc(OC)c(NC(=O)c2ccc(C)c(Oc3ncccc3-c3ccncn3)c2)c1 [Example 258, methyl 4-(methyloxy)-3-(((4-methyl-3-((3-(4-pyrimidinyl)-2-pyridinyl)oxy)phenyl)carbonyl)amino)benzoate] | < 5 µM |
| COc1ccc(OC)c(NC(=O)c2ccc(C)c(Oc3ncccc3-c3ccncn3)c2)c1 [Example 259, N-(2,5-bis(methyloxy)phenyl)-4-methyl-3-((3-(4-pyrimidinyl)-2-pyridinyl)oxy)benzamide] | < 5 µM |
| Cc1ccc(C(=O)Nc2cccc(-c3ccccc3)c2)cc1Oc1ncccc1-c1ccncn1 [Example 261, N-(1,1′-biphenyl-3-yl)-4-methyl-3-((3-(4-pyrimidinyl)-2-pyridinyl)oxy)benzamide] | < 5 µM |
| CNc1nccc(-c2cccnc2Oc2cc(C(=O)Nc3cc(-c4ccccc4)ccc3OC)ccc2C)n1 [Example 265, 4-methyl-3-((3-(2-(methylamino)-4-pyrimidinyl)-2-pyridinyl)oxy)-N-(4-(methyloxy)-1,1′-biphenyl-3-yl)benzamide] | < 5 µM |
| Cc1ccc(C(F)(F)F)cc1NC(=O)c1ccc(C)c(Oc2ncccc2-c2ccncn2)c1 [Example 268, 4-methyl-N-(2-methyl-5-(trifluoromethyl)phenyl)-3-((3-(4-pyrimidinyl)-2-pyridinyl)oxy)benzamide] | < 5 µM |
| Cc1ccc(C(C)C)cc1NC(=O)c1ccc(C)c(Oc2ncccc2-c2ccncn2)c1 [Example 269, 4-methyl-N-(2-methyl-5-(1-methylethyl)phenyl)-3-((3-(4-pyrimidinyl)-2-pyridinyl)oxy)benzamide] | < 5 µM |
| CNc1nccc(-c2cccnc2Oc2cc(C(=O)Nc3cc(C(C)(C)C)nn3-c3ccccc3)ccc2C)n1 [Example 270, N-(3-(1,1-dimethylethyl)-1-phenyl-1H-pyrazol-5-yl)-4-methyl-3-((3-(2-(methylamino)-4-pyrimidinyl)-2-pyridinyl)oxy)benzamide] | < 5 µM |
| Cc1cc(C(=O)Nc2cccc(C(C)C)c2)ccc1Oc1ncccc1-c1ccncn1 [Example 272, 3-methyl-N-(3-(1-methylethyl)phenyl)-4-((3-(4-pyrimidinyl)-2-pyridinyl)oxy)benzamide] | < 5 µM |
| Cc1ccc(C(=O)Nc2cc(C(F)(F)F)cc(C(F)(F)F)c2C)cc1Oc1ncccc1-c1ccncn1 [Example 273, 4-methyl-N-(2-methyl-3,5-bis(trifluoromethyl)phenyl)-3-((3-(4-pyrimidinyl)-2-pyridinyl)oxy)benzamide] | < 5 µM |
| CNc1nccc(-c2cccnc2Oc2cc(C(=O)Nc3ccccc3OC)ccc2C)n1 [Example 274, 4-methyl-3-((3-(2-(methylamino)-4-pyrimidinyl)-2-pyridinyl)oxy)-N-(2-(methyloxy)phenyl) benzamide] | < 5 µM |
| Cc1ccc(C(=O)Nc2cc(-c3ccccc3)nn2-c2ccccc2)cc1Oc1ncccc1-c1ccncn1 [Example 275, N-(1,3-diphenyl-1H-pyrazol-5-yl)-4-methyl-3-((3-(4-pyrimidinyl)-2-pyridinyl)oxy)benzamide] | < 5 µM |

| Compound | IC50 |
| --- | --- |
| CNc1nccc(-c2cccnc2Oc2cc(C(=O)N[C@H](C)c3ccccc3)ccc2C)n1 [Example 277, 4-methyl-3-((3-(2-(methylamino)-4-pyrimidinyl)-2-pyridinyl)oxy)-N-((1R)-1-phenylethyl)benzamide] | < 5 µM |
| CNc1nccc(-c2cccnc2Oc2cc(C(=O)Nc3ccccc3)ccc2C)n1 [Example 279, 4-methyl-3-((3-(2-(methylamino)-4-pyrimidinyl)-2-pyridinyl)oxy)-N-phenylbenzamide] | < 5 µM |
| CNc1nccc(-c2cccnc2Oc2cc(C(=O)Nc3ccc(C(C)C)cc3)ccc2C)n1 [Example 280, 4-methyl-3-((3-(2-(methylamino)-4-pyrimidinyl)-2-pyridinyl)oxy)-N-(4-(1-methylethyl)phenyl) benzamide] | < 5 µM |
| CNc1nccc(-c2cccnc2Oc2cc(C(=O)Nc3cccc(C(F)(F)F)c3C)ccc2C)n1 [Example 281, 4-methyl-3-((3-(2-(methylamino)-4-pyrimidinyl)-2-pyridinyl)oxy)-N-(2-methyl-3-(trifluoromethyl)phenyl) benzamide] | < 5 µM |
| CCN(CC)CCNc1nccc(-c2cccnc2Oc2cc(C(=O)Nc3cccc(C(C)C)c3)ccc2C)n1 [Example 285, 3-((3-(2-((2-(diethylamino)ethyl)amino)-4-pyrimidinyl)-2-pyridinyl)oxy)-4-methyl-N-(3-(1-methylethyl)phenyl) benzamide] | < 5 µM |
| CNc1nccc(-c2cccnc2Oc2cc(C(=O)Nc3cccc(Cc4ccccc4)c3)ccc2C)n1 [Example 286, 4-methyl-3-((3-(2-(methylamino)-4-pyrimidinyl)-2-pyridinyl)oxy)-N-(3-(phenylmethyl)phenyl) benzamide] | < 5 µM |
| CCN(CC)CCNc1nccc(-c2cccnc2Oc2cc(C(=O)Nc3cc(C4CCCCC4)ccc3OC)ccc2C)n1 [Example 287, N-(5-cyclohexyl-2-(methyloxy)phenyl)-3-((3-(2-((2-(diethylamino)ethyl)amino)-4-pyrimidinyl)-2-pyridinyl)oxy)-4-methylbenzamide] | < 5 µM |
| CNc1nccc(-c2cccnc2Oc2cc(C(=O)NCc3cccc(C(F)(F)F)c3)ccc2C)n1 [Example 288, 4-methyl-3-((3-(2-(methylamino)-4-pyrimidinyl)-2-pyridinyl)oxy)-N-((3-(trifluoromethyl)phenyl)methyl)benzamide] | < 5 µM |
| CNc1nccc(-c2cccnc2Oc2cc(C(=O)NCC(F)(F)C(F)(F)F)ccc2C)n1 [Example 289, 4-methyl-3-((3-(2-(methylamino)-4-pyrimidinyl)-2-pyridinyl)oxy)-N-(2,2,3,3,3-pentafluoropropyl) benzamide] | < 5 µM |
| CNc1nccc(-c2cccnc2Oc2cc(C(=O)NCC(F)(F)C(F)(F)C(F)(F)F)ccc2C)n1 [Example 290, N-(2,2,3,3,4,4,4-heptafluorobutyl)-4-methyl-3-((3-(2-(methylamino)-4-pyrimidinyl)-2-pyridinyl)oxy)benzamide] | < 5 µM |
| CNc1nccc(-c2cccnc2Oc2cc(C(=O)N[C@H](C)C3CCCCC3)ccc2C)n1 [Example 292, N-((1R)-1-cylcohexylethyl)-4-methyl-3-((3-(2-(methylamino)-4-pyrimidinyl)-2-pyridinyl)oxy)benzamide] | < 5 µM |
| CNc1nccc(-c2cccnc2Oc2cc(C(=O)Nc3cc(C(C)(C)C)ccc3OC)ccc2C)n1 [Example 293, N-(5-(1,1-dimethylethyl)-2-(methyloxy)phenyl)-4-methyl-3-((3-(2-(methylamino)-4-pyrimidinyl)-2-pyridinyl)oxy)benzamide] | < 5 µM |
| CCN(CC)CCNc1nccc(-c2cccnc2Oc2cc(C(=O)Nc3cc(C(F)(F)F)ccc3N3CCOCC3)ccc2C)n1 [Example 294, 3-((3-(2-((2-(diethylamino)ethyl)amino)-4-pyrimidinyl)-2-pyridinyl)oxy)-4-methyl-N-(2-(4-morpholinyl)-5-(trifluoromethyl)phenyl) benzamide] | < 5 µM |
| CCCCCNC(=O)c1ccc(C)c(Oc2ncccc2-c2ccnc(NC)n2)c1 [Example 297, 4-methyl-3-((3-(2-(methylamino)-4-pyrimidinyl)-2-pyridinyl)oxy)-N-pentylbenzamide] | < 5 µM |
| CNc1nccc(-c2cccnc2Oc2cccc(C(=O)Nc3cc(C(F)(F)F)ccc3N3CCCCC3)c2)n1 [Example 300, 3-((3-(2-(methylamino)-4-pyrimidinyl)-2-pyridinyl)oxy)-N-(2-(1-piperidinyl)-5-(trifluoromethyl)phenyl) benzamide] | < 5 µM |
| CNc1nccc(-c2cccnc2Oc2cccc(C(=O)Nc3cc(C4CCCCC4)ccc3OC)c2)n1 [Example 301, N-(5-cyclohexyl-2-(methyloxy)phenyl)-3-((3-(2-(methylamino)-4-pyrimidinyl)-2-pyridinyl)oxy)benzamide] | < 5 µM |
| CNc1nccc(-c2cccnc2Oc2cccc(C(=O)Nc3cccc(C(F)(F)F)c3C)c2)n1 [Example 305, 3-((3-(2-(methylamino)-4-pyrimidinyl)-2-pyridinyl)oxy)-N-(2-methyl-3-(trifluoromethyl)phenyl) benzamide] | < 5 µM |
